PubChem BioAssay AID743454 – Peter MacCallum Cancer Centre | 2014
Test: 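Knock-downs lowering viability or raising caspase 3/7 activity in vorinostat-treated resistant cells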 (primary screen). Cells: human HCT116-VR colon cancer cells, selected for vorinostat resistance. Reagent: siRNA pool against human genes, 40 nM siRNA pool. Time to read-out: vorinostat for 24 h, read-out about 72 h after transfection. Challenge: vorinostat at 2.5 µM final. Measurement: 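Two measures, CellTiter-Fluor viability and luminescent caspase 3/7 activity, each as fold change against same-plate mock wells, mean of duplicates, then screen-wide robust z-score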. Direction: viability robust z-score: higher = more viable cells than screen typical; caspase robust z-score: higher = more caspase 3/7 activity than screen typical. Rule for the call: 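Hits are knock-downs in viability class RV1/RV2 or caspase class CA1/CA2, excluding ones that killed cells in the no-drug cell-count arm; hits then retested with single siRNAs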.
Here is an unselected part of about 18,000 reagents. Over the whole deposit, 450 (2.5%) were called active. 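Single biological run; no consistent viability z cut-off exists, so the class columns, not z-scores, define the calls.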 No sequences are given here.

{"Gene": "MBNL1", "viability hit class": "no change", "caspase hit class": "no change", "viability robust z-score": -0.38, "caspase robust z-score": 0.85, "call": "inactive"}
{"Gene": "ZIM2", "viability hit class": "no change", "caspase hit class": "no change", "viability robust z-score": 0.28, "caspase robust z-score": -0.68, "call": "inactive"}
{"Gene": "OR5B21", "viability hit class": "no change", "caspase hit class": "no change", "viability robust z-score": 0.38, "caspase robust z-score": 0.5, "call": "inactive"}
{"Gene": "FABP4", "viability hit class": "no change", "caspase hit class": "no change", "viability robust z-score": -1.52, "caspase robust z-score": -1.2, "call": "inactive"}
{"Gene": "MS4A6E", "viability hit class": "no change", "caspase hit class": "no change", "viability robust z-score": -1, "caspase robust z-score": 2.94, "call": "inactive"}
{"Gene": "LIMA1", "viability hit class": "no change", "caspase hit class": "no change", "viability robust z-score": -0.74, "caspase robust z-score": -1.03, "call": "inactive"}
{"Gene": "FRZB", "viability hit class": "no change", "caspase hit class": "no change", "viability robust z-score": -0.22, "caspase robust z-score": 1.11, "call": "inactive"}
{"Gene": "EIF2A", "viability hit class": "no change", "caspase hit class": "no change", "viability robust z-score": -0.31, "caspase robust z-score": -0.82, "call": "inactive"}
{"Gene": "PDS5B", "viability hit class": "no change", "caspase hit class": "no change", "viability robust z-score": 0.18, "caspase robust z-score": -0.63, "call": "inactive"}
{"Gene": "CCDC107", "viability hit class": "no change", "caspase hit class": "no change", "viability robust z-score": 1.26, "caspase robust z-score": -0.96, "call": "inactive"}
{"Gene": "SURF2", "viability hit class": "no change", "caspase hit class": "no change", "viability robust z-score": 0.63, "caspase robust z-score": -0.95, "call": "inactive"}
{"Gene": "LRRC71", "viability hit class": "no change", "caspase hit class": "no change", "viability robust z-score": -1.6, "caspase robust z-score": 0.62, "call": "inactive"}
{"Gene": "PAFAH1B3", "viability hit class": "no change", "caspase hit class": "no change", "viability robust z-score": 1.38, "caspase robust z-score": -0.08, "call": "inactive"}
{"Gene": "FCRL2", "viability hit class": "no change", "caspase hit class": "no change", "viability robust z-score": -2.36, "caspase robust z-score": 1.92, "call": "inactive"}
{"Gene": "NDUFAF3", "viability hit class": "no change", "caspase hit class": "no change", "viability robust z-score": 0.7, "caspase robust z-score": 0.18, "call": "inactive"}
{"Gene": "ITPKA", "viability hit class": "no change", "caspase hit class": "no change", "viability robust z-score": -0.03, "caspase robust z-score": 0.28, "call": "inactive"}
{"Gene": "ARHGAP21", "viability hit class": "no change", "caspase hit class": "no change", "viability robust z-score": 0.97, "caspase robust z-score": 3.73, "call": "inactive"}
{"Gene": "FBXO30", "viability hit class": "no change", "caspase hit class": "no change", "viability robust z-score": -2.67, "caspase robust z-score": 1.19, "call": "inactive"}
{"Gene": "FAM222A", "viability hit class": "no change", "caspase hit class": "no change", "viability robust z-score": -1.63, "caspase robust z-score": 0.86, "call": "inactive"}
{"Gene": "COL9A3", "viability hit class": "no change", "caspase hit class": "no change", "viability robust z-score": -2.28, "caspase robust z-score": 0.06, "call": "inactive"}
{"Gene": "COL11A2", "viability hit class": "no change", "caspase hit class": "CA2 (caspase activation)", "viability robust z-score": -1.83, "caspase robust z-score": 5.52, "call": "active"}

Reagents listed so far with an active call, once more:
{"Gene": "COL11A2", "viability hit class": "no change", "caspase hit class": "CA2 (caspase activation)", "viability robust z-score": -1.83, "caspase robust z-score": 5.52, "call": "active"}
